PubChem BioAssay AID602196 – INSERM, 2012
Screen: 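Genes whose knock-down alters cisplatin killing of lung cancer cells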. Cell system: human A549 lung cancer cells. Reagents: siRNA pair against human genes. Duration: 48 h transfection before cisplatin; time from cisplatin to read-out not stated. Conditions: cisplatin at a dose killing half of control-siRNA cells; exact dose and duration not given. Detection: 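Shift in cisplatin death relative to control siRNA, from -50 (all cells die) to +50 (no cells die); siRNAs harmful on their own scored 0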. Reading the numbers: two-siRNA summed score (-2 to +2): higher = both siRNAs protect from cisplatin killing; -2 means both sensitise. Rule for the call: 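Each siRNA scores 0 if harmful alone by LDH or WST-1, otherwise +1 if it reduces and -1 if it increases cisplatin killing; a gene is active when both siRNAs agree (sum +2 or -2)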. Calls: active = both siRNAs shift cisplatin killing the same way; inactive = no consistent shift, or siRNA harmful alone.
This is a random part of about 23,000 reagents tested. 455 of all reagents (2%) count as active. 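Active includes both protection and sensitisation; some change values fall well beyond the stated -50 to +50 range.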 The numbers tell different reagents against one gene apart. Not all columns of the deposit are shown. Not given: the amount of reagent.

Target gene | reagent | two-siRNA summed score (-2 to +2) | call
TM9SF2 | 1 | 0 | inactive
DYNLT5 | 1 | -1 | inactive
LOC441888 | 1 | 0 | inactive
KIAA0586 | 1 | 1 | inactive
H3C10 | 1 | 0 | inactive
LOC440621 | 1 | 2 | active
SCO1 | 1 | 1 | inactive
LOC400793 | 1 | 1 | inactive
LOC442386 | 1 | 1 | inactive
STPG2 | 1 | 0 | inactive
LINC01138 | 1 | 0 | inactive
CIB3 | 1 | 0 | inactive
CCNB3 | 1 | 0 | inactive
DEFA3 | 1 | 0 | inactive
BDH2 | 1 | 1 | inactive
DSEL | 1 | 0 | inactive
PPP6R2 | 1 | 1 | inactive
TSPYL5 | 1 | 0 | inactive
SAMD8 | 1 | 0 | inactive
LOC200019 | 1 | 0 | inactive
TAS2R4 | 1 | -1 | inactive
IREB2 | 1 | 0 | inactive
LOC440180 | 1 | 0 | inactive
AGR3 | 1 | 0 | inactive
ZSCAN16 | 1 | 0 | inactive
STAG3 | 1 | 1 | inactive
SAXO4 | 1 | 0 | inactive
SLC7A3 | 1 | 1 | inactive
MTBP | 1 | 1 | inactive
SERF1A | 1 | 0 | inactive
LOC389443 | 1 | 0 | inactive
PLSCR1 | 1 | -1 | inactive
TGM4 | 1 | 0 | inactive
GPR141 | 1 | 0 | inactive
LRRC8E | 1 | 0 | inactive
LOC441167 (retired record) | 1 | 1 | inactive
PRRC2B | 1 | 0 | inactive
LILRA3 | 1 | 0 | inactive
TRAF7 | 1 | -1 | inactive
MVK | 1 | 0 | inactive
GPD1L | 1 | 0 | inactive
LOC400500 | 1 | 0 | inactive
TNFAIP1 | 1 | 0 | inactive
PPP3R2 | 1 | 0 | inactive
OVOS1P | 1 | 0 | inactive
CFAP299 | 1 | 0 | inactive
RBM42 | 1 | -1 | inactive
SLC28A2 | 1 | 0 | inactive
BLOC1S5 | 1 | -1 | inactive
C16orf46 | 1 | 0 | inactive
GOLGA6L22 | 1 | 0 | inactive
GOLGA6L22 | 2 | 0 | inactive
LOC347512 | 1 | 1 | inactive
LOC344227 | 1 | -1 | inactive
SLC2A12 | 1 | 0 | inactive
LOC131909 | 1 | 0 | inactive
LOC440737 | 1 | 0 | inactive

Already shown: an excerpt of the list.
Target gene | reagent | two-siRNA summed score (-2 to +2) | call
PPP3R2 | 1 | 0 | inactive
OVOS1P | 1 | 0 | inactive
CFAP299 | 1 | 0 | inactive
RBM42 | 1 | -1 | inactive
SLC28A2 | 1 | 0 | inactive
BLOC1S5 | 1 | -1 | inactive
C16orf46 | 1 | 0 | inactive
GOLGA6L22 | 1 | 0 | inactive
